Assay: Comparison of EPA in filtered and unfiltered solutions
Conditions: 46 g water 130° C., 250 psi, two 20 μm frits and 0.45 μm Nalgene filter
Method: A fluid path syringe was filled with 46 g of 18.2 MΩcm water and 8.75 g of 720 mM NaOH, 400 mM TRIS and 536 μM EDTA was put into the fluid path receiver. A mixture of ^12C pyruvic acid and EPA in the ratio of 53:1 respectively was placed in the sample container of the fluid path to simulate the hyperpolarized imaging agent. The water in the syringe was heated to 130° C. and the sample container was dipped into liquid nitrogen. The system was pressurized to 250 psi. A 0.45 μm Nalgene filter was connected on the back end of the filter body. The filter body contained two diffusers and two frits normally used to hold a chemical resin in place, but in this instance were used as mechanical particle size exclusion filters (Varian, part number 12131043, 1.5″ diameter, average pore size 20 μm). The valves of the fluid path were opened in the normal sequence for the dissolution to occur.

In the case of “tris {8-carboxyl-2,2,6,6-tetra[2-(1-methoxyethyl)]-benzo(1,2-d:4,5-d′)bis(1,3)dithiole-4-yl}methyl sodium salt [EPA]”, the “reduction in EPA concentration as compared to an unfiltered system” value is reported as 99% and the “EPA concentration of resulting solution in the receiver” value (two diffusers) is reported as less than 3 µM.

From US8763410B2, “Method and apparatus for the dissolution and filtration of a hyperpolarized agent with a neutral dissolution media” (General Electric Company, priority 2008, dated 2014)
